Screening data, single-dose tests

Sequences of proteins named here, by UniProt entry; tags and fusion partners are left off. Residues count along the entry.
UniProt P9WFT3, whole entry: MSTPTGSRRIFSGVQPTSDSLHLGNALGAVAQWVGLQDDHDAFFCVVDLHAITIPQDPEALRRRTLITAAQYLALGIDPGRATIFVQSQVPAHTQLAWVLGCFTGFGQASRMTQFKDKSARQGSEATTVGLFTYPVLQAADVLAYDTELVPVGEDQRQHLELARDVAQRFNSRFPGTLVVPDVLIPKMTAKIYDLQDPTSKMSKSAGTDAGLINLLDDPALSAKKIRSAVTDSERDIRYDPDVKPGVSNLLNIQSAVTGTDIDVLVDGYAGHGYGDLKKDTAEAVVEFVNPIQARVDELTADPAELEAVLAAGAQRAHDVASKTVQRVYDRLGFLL
UniProt A4I591, 1-473: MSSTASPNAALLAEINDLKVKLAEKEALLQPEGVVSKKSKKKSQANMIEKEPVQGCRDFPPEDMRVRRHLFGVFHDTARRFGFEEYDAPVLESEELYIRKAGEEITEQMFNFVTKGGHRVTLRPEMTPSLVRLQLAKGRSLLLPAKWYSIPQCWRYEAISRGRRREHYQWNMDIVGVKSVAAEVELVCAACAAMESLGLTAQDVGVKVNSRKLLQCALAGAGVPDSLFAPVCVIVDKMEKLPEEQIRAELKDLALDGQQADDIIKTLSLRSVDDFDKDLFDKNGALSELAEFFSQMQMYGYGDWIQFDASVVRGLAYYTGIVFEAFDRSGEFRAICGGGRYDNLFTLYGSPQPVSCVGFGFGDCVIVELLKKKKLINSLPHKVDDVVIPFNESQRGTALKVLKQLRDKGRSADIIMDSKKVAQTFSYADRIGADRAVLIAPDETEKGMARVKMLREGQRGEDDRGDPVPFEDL

Each number is a percent effect as filed.
The controls that fix the scale are not given in the record; negative values are as filed.
This is an unselected part of the compounds tested.
A dash means the value is not listed here; it may have been measured.

MtTrpRS: 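Enzyme assay of tryptophanyl-tRNA synthetase; the read-out is not stated. Target: Tryptophan-tRNA ligase, Mycobacterium tuberculosis (UniProt P9WFT3). Compounds at 10 µM. Higher most likely means stronger inhibition; the record gives no direction and few retests gave an IC50. Of about 65,000 compounds tested this way, about 64 (0.098%) reached 50% or more in at least one test.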
LiHisRS: 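Histidine-tRNA ligase, Leishmania infantum (UniProt A4I591). Enzyme assay of histidyl-tRNA synthetase; the read-out is not stated. Compounds at 30 µM. Direction is inferred from retests: higher values go with stronger inhibition. The assay is labelled LdHisRS but filed under L. infantum. About 69,000 compounds were tested under these conditions; 0.6% (about 410) showed 50% or more at least once.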

structure: CCOc1ccccc1Oc1ccc(CN)cn1
MtTrpRS: -2.039%
LiHisRS: 6.667%

structure: Fc1ccc(CN2CCCn3cnc(COCC4CC4)c3C2)cc1
MtTrpRS: -0.2788%
LiHisRS: 16.67%

structure: COC1CCN(C(=O)c2csc(-c3ccccc3F)n2)CC1
MtTrpRS: -17.99%
LiHisRS: 0%

structure: c1csc(-c2nc(CN3CCCC3Cn3cncn3)co2)c1 (stereo not given)
MtTrpRS: 2.067%
LiHisRS: 11.54%

structure: Fc1cccc(CN2C[C@@H]3CN(c4ncccn4)C[C@@H]3C2)c1
LiHisRS: 0.9009%

structure: O=C(NC1CCCC1)c1nc2c(o1)CN(C(=O)CCO)C2
MtTrpRS: -3.477%
LiHisRS: -68%

structure: CN1CCc2[nH]cnc2C12CCN(Cc1ccc(S(C)(=O)=O)cc1)CC2
MtTrpRS: 1.06%
LiHisRS: 17.24%

structure: c1cc(CNCC2CNc3ccnn3C2)cc(N2CCOCC2)n1 (stereo not given)
MtTrpRS: 2.13%
LiHisRS: 15.79%

structure: O=C(C[C@H]1[C@H]2CN(C(=O)CO)C[C@@H]12)Nc1cccnc1
MtTrpRS: 1.082%
LiHisRS: 23.68%

structure: O=C(c1ccc[nH]1)N(Cc1ccc(O)cc1)CC1CC1
MtTrpRS: -6.416%
LiHisRS: 7.563%

structure: CCOc1ccnc(N2CCN(C(=O)c3cccnc3)CC2)n1
MtTrpRS: -2.416%
LiHisRS: -2.632%

structure: Cc1ccc(OCCSCCn2nc3ccccn3c2=O)cc1
MtTrpRS: -0.6159%
LiHisRS: 18.68%

structure: CCc1cc(NCCNC(C)=O)nc(N2CCOCC2)n1
MtTrpRS: -3.715%
LiHisRS: 7.5%

structure: CC(=O)C1(c2ccccc2)CCN(C(=O)C2CNCCO2)CC1 (stereo not given)
MtTrpRS: 1.111%
LiHisRS: 11.11%

structure: CC(=O)N(C)Cc1cccc(NC(=O)c2cnn(C)c2C)c1
MtTrpRS: -0.8972%
LiHisRS: -12.64%

structure: CCC1CN(C(=O)c2ccccc2N2CCCC2)CCN1C(C)C (stereo not given)
MtTrpRS: -3.091%
LiHisRS: 7.619%

structure: Cc1ccc(N2Cc3cnn(C)c3C(COCC3CC3)C2)nn1 (stereo not given)
LiHisRS: 26.42%

structure: O=C(c1ccccc1)N1CCC2(CCCN2c2ncccn2)CC1
MtTrpRS: 3.239%
LiHisRS: 26.6%

structure: CCCc1noc(CCC(=O)N2CCCC2c2ccsc2)n1 (stereo not given)
MtTrpRS: -3.226%
LiHisRS: 5.618%

structure: Cc1cc(C)n(CCCN(C)C(=O)C2COc3ccccc3C2)n1 (stereo not given)
MtTrpRS: 2.465%
LiHisRS: 8.73%

structure: Cn1cc(-c2nnc3sc(C4CCC4)nn23)cn1
MtTrpRS: 6.592%
LiHisRS: -28.26%

structure: COc1ccc(-c2nnc(CN3CCCC3Cn3cncn3)o2)cc1 (stereo not given)
MtTrpRS: 9.862%
LiHisRS: 5.769%

structure: CO[C@H]1CCN(C(=O)c2ccsc2)[C@@H]2CN(CC3CC3)C[C@H]12
MtTrpRS: -2.762%
LiHisRS: 5.769%

structure: CC(C)N(C(=O)c1csc(-c2ccoc2)n1)C1CCOCC1
MtTrpRS: -2.593%
LiHisRS: 20%

structure: Cc1ccc(C(=O)NCC(O)c2cccc(F)c2)c(=O)[nH]1 (stereo not given)
MtTrpRS: -2.062%
LiHisRS: 11.4%

structure: Cc1noc(CN(C)CC2(O)CCCN(CCC3CCCCC3)C2=O)n1 (stereo not given)
MtTrpRS: -2.484%
LiHisRS: 20.97%

structure: CCc1cnc(CN(C(C)=O)C2CCN(CC3(O)CCCCC3)C2)o1 (stereo not given)
MtTrpRS: 13.28%
LiHisRS: 15.18%

structure: COC[C@]1(O)CCN(Cc2cnc(N3CCOCC3)nc2)CC1(C)C
MtTrpRS: 0.8158%
LiHisRS: 20.48%

structure: O=S(=O)(CCOc1ccc(F)cc1)Nc1cnn(CC(F)F)c1
MtTrpRS: 1.223%
LiHisRS: 19.54%

structure: O=C(Cn1cc(Cl)cn1)Nc1ccc2c(c1)OCO2
MtTrpRS: -0.7346%
LiHisRS: 22.58%

structure: COCCNC(=O)Nc1cc2c(cc1SC)OCCO2
MtTrpRS: 0%
LiHisRS: 15.15%

structure: CC(C)CC1SCC(=O)Nc2c1cnn2-c1ccc(F)cc1 (stereo not given)
MtTrpRS: -3.216%
LiHisRS: 11.65%

structure: CN(CC(=O)N1CCCC1Cn1cccn1)C1CC1 (stereo not given)
MtTrpRS: 4.17%
LiHisRS: 12.36%

structure: Cc1ncnc2c1CCN(CC(=O)N(C)C)CC2
LiHisRS: 9.91%

structure: Cc1cc(NC(=O)CN2CCC(N(C)Cc3ncc(C)o3)C2)n(C)n1 (stereo not given)
MtTrpRS: 8.252%
LiHisRS: 5.085%

structure: CSc1ccccc1C(=O)N(C)Cc1nncn1C(C)C
MtTrpRS: -2.931%
LiHisRS: 9.735%

structure: Cc1n[nH]c(C)c1-c1nccnc1CC1CCN(S(C)(=O)=O)C1 (stereo not given)
LiHisRS: -1.042%

structure: CC(=O)N1CCCC1c1nc(N(C)C)ncc1-c1ccccc1 (stereo not given)
MtTrpRS: 11.07%
LiHisRS: 11.27%

structure: O=C1NC(c2ccccc2)=N[C@@]12CC[C@@H]1CN(Cc3cccnc3)C[C@@H]12
MtTrpRS: -6.599%
LiHisRS: 8.333%

structure: COc1ccc2nc(CCNC(=O)c3cc(CC(C)C)no3)[nH]c2c1
MtTrpRS: -0.3173%
LiHisRS: 19.15%

structure: COCCN1C[C@@H]2CCCO[C@@H]2[C@H](N(C)Cc2ccco2)C1
MtTrpRS: -0.3524%
LiHisRS: 15.33%

structure: CNc1ncc(C(=O)N2CC[C@@](O)(C3CCOCC3)[C@H](C)C2)cn1
MtTrpRS: 1.957%
LiHisRS: 5.6%

structure: O=C(O)CC[C@@H]1CN(c2ccncc2)CC[C@@H]1N1CCOCC1
MtTrpRS: 4.909%
LiHisRS: 4.167%

structure: CC(C)c1nc(C2CCCN(C(=O)CCc3cscn3)C2)no1 (stereo not given)
MtTrpRS: -3.899%
LiHisRS: 8.929%

structure: N#Cc1ccc(OCCNc2cccc(C(=O)N3CCOCC3)c2)cc1
MtTrpRS: 1.74%
LiHisRS: 23.58%

structure: Cc1nc(C(=O)N[C@H]2COC[C@@H]2N2CCCCC2)cs1
MtTrpRS: 2.12%
LiHisRS: -1.176%

3 of the entries, repeated:

structure	MtTrpRS	LiHisRS
CNc1ncc(C(=O)N2CC[C@@](O)(C3CCOCC3)[C@H](C)C2)cn1	1.957%	5.6%
Cc1n[nH]c(C)c1-c1nccnc1CC1CCN(S(C)(=O)=O)C1 (stereo not given)	-	-1.042%
COCCNC(=O)Nc1cc2c(cc1SC)OCCO2	0%	15.15%

Measurements from “University of Dundee, Small-Polar-MMV Screening Library” (2021), ChEMBL document CHEMBL3988442.